Measured values as given in US20070036793A1, “Methods for use of an lkb1/strad7mo25 complex” (priority 2003, published 2007).
Results are given in words; binding and its absence hold for the method and conditions named. For some assays here: In cells and extracts the contact can be indirect. Some binding calls cover weakened binding; strength is not graded here. For some assays here: Where a sequence is shown, tags or fusion partners need not be part of it. Blank lines part the entries; values can stand above or below the molecule they belong to.

By UniProt entry, the sequences of proteins in these tests, tags left out. Residues count along the entry.
UniProt P08238, residues 2-724: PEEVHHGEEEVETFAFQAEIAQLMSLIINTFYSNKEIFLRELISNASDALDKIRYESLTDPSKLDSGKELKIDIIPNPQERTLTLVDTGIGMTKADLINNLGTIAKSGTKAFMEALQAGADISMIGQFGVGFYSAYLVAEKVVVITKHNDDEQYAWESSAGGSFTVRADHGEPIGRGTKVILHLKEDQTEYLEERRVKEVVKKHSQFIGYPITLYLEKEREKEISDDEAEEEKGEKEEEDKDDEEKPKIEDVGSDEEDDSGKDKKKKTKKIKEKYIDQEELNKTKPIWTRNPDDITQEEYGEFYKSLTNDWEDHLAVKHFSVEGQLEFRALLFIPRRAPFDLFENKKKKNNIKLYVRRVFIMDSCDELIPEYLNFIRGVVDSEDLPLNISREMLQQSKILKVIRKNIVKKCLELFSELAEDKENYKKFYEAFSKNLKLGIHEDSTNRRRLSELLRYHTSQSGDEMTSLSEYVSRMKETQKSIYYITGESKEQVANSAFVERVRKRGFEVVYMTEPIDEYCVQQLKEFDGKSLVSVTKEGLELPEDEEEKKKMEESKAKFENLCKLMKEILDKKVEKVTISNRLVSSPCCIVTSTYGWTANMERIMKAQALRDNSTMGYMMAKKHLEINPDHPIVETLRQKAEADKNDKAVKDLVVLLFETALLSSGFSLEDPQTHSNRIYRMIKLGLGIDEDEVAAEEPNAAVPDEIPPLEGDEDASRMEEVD

Tests used:
[1] = target: T1, N-terminal GST tagged wild type LKB1 (mouse) (UniProt Q9WTK7); test: co-expression in 293 cells, glutathione-Sepharose pull-down of GST-LKB1, colloidal blue stained gel
T1 sequence (looked up): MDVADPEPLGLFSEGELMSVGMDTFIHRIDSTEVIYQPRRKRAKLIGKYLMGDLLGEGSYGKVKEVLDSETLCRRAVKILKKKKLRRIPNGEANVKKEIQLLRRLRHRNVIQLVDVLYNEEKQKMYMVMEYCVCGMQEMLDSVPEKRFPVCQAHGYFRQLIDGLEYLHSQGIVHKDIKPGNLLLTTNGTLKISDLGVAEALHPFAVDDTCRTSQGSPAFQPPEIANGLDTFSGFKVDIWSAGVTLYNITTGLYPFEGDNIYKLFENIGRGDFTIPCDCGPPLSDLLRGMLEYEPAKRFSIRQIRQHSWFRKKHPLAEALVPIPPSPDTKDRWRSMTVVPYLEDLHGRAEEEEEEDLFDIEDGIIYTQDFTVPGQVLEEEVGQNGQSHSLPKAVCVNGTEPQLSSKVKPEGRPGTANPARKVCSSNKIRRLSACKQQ

[2] = target: T2, endogenous LKB1 of 293 / HEK-293T cells (human) (UniProt Q15831); test: co-immunoprecipitation of endogenous proteins with anti-LKB1 antibody, 293 cells, immunoblot
T2 sequence (looked up): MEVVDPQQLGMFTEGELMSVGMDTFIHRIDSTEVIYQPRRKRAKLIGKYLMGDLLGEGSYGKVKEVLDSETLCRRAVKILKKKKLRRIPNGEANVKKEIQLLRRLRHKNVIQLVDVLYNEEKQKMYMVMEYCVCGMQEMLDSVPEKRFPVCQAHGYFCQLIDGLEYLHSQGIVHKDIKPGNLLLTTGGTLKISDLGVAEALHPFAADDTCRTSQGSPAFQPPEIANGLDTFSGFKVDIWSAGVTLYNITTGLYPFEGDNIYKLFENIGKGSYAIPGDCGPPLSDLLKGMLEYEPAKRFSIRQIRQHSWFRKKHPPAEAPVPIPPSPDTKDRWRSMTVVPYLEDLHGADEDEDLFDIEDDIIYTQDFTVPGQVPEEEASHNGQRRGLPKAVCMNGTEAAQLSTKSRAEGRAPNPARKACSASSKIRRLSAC

[3] = target: T2, endogenous LKB1 of 293 / HEK-293T cells (human); test: co-immunoprecipitation with anti-LKB1 antibody, HEK-293T cells
[4] = target: T3, endogenous human MO25α (HeLa, 293 cells) (human) (UniProt Q9Y376); test: co-immunoprecipitation of endogenous proteins with anti-MO25α antibody, 293 cells, immunoblot
T3 sequence (looked up): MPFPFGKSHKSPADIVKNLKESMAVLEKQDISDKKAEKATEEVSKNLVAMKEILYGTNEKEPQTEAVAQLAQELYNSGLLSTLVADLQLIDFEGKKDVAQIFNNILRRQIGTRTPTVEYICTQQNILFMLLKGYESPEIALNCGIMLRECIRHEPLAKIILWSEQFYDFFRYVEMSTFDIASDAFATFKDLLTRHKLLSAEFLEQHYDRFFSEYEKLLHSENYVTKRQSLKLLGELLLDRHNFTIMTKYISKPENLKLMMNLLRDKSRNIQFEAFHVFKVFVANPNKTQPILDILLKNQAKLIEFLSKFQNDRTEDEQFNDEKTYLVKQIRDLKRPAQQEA

[5] = target: T4, endogenous rat LKB1 (Rat-2 cells; rat liver AMPKK1 and AMPKK2 fractions) (rat) (UniProt D4AE59); test: co-immunoprecipitation of endogenous proteins with anti-LKB1 antibody, Rat-2 cells, immunoblot
T4 sequence (looked up): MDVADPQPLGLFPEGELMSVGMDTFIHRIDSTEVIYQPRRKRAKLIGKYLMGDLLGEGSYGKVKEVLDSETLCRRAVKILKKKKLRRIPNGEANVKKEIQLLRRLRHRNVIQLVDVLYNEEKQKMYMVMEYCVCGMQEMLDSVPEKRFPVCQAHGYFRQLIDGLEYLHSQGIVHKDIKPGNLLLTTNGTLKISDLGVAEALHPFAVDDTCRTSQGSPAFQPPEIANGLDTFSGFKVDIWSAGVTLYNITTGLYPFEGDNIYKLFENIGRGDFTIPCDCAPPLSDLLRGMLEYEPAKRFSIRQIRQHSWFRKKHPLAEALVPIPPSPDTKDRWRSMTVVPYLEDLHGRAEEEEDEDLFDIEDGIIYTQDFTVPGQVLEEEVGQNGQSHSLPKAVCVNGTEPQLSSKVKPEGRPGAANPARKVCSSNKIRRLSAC

[6] = target: T4, endogenous rat LKB1 (Rat-2 cells; rat liver AMPKK1 and AMPKK2 fractions) (rat); test: co-immunoprecipitation with anti-LKB1 antibody (figure legend)
[7] = target: T5, endogenous rat MO25α (Rat-2 cells; rat liver) (rat) (UniProt D3ZJ77); test: co-immunoprecipitation of endogenous proteins with anti-MO25α antibody, Rat-2 cells, immunoblot
T5 sequence: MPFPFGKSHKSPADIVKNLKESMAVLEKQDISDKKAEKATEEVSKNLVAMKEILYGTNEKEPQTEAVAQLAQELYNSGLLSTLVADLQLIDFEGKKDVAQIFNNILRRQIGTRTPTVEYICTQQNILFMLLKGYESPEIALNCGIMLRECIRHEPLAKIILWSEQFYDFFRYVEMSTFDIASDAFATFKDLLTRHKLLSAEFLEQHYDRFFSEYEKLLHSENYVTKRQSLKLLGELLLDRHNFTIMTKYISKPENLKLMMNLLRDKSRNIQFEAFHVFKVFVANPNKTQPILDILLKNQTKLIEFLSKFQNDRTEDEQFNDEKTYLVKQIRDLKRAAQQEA

[8] = target: T4, endogenous rat LKB1 (Rat-2 cells; rat liver AMPKK1 and AMPKK2 fractions) (rat); test: co-immunoprecipitation with anti-LKB1 antibody from rat liver AMPKK1 and AMPKK2 fractions
[9] = target: T6, N-terminal Flag epitope tagged kinase dead LKB1 (D194A) (mouse) (UniProt Q9WTK7); test: anti-Flag affinity purification of Flag-LKB1 from HeLa cells; mass fingerprint and immunoblot
T6 sequence: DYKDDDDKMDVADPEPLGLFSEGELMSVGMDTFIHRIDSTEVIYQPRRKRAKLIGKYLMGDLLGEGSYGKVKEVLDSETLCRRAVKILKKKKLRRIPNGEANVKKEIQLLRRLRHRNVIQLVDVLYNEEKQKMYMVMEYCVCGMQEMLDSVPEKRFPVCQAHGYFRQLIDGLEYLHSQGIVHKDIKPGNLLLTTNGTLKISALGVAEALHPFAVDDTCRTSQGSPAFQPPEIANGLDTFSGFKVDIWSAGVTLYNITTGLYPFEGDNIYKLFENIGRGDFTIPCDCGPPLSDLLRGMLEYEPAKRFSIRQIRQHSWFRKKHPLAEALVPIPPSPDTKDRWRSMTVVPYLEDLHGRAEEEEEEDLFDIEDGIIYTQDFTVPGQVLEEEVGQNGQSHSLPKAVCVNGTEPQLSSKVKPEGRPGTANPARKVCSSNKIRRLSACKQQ

[10] = target: T7, N-terminal GST tagged wild type STRADα (human) (UniProt Q7RTN6); test: GST pull-down from co-transfected 293 cells, anti-Myc blot
T7 sequence: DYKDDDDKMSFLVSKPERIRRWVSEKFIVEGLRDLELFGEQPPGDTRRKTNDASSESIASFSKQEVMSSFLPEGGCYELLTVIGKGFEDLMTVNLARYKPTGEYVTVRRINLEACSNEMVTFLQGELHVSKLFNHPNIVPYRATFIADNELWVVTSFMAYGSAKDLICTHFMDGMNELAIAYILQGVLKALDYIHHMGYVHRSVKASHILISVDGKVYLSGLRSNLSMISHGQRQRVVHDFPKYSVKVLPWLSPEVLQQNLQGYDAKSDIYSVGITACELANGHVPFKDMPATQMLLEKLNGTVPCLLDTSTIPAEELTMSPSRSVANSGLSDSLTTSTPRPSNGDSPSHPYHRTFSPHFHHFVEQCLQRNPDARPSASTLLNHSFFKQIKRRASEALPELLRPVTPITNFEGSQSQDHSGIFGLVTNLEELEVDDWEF

[11] = target: T8, N-terminal GST tagged STRADβ (human) (UniProt Q9C0K7); test: as above
T8 sequence: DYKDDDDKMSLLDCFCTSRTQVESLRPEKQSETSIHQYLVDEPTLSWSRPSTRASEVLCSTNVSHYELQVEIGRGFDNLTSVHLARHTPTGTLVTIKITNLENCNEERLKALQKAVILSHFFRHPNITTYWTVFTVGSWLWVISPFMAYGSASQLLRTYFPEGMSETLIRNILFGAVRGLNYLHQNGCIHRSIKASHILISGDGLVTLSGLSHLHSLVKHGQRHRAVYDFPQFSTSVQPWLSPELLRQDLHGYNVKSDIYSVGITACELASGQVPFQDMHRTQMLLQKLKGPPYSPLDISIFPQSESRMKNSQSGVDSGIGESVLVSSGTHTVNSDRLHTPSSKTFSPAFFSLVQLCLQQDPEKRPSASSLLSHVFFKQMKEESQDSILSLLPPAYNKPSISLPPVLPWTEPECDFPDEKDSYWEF

Molecule: Hsp90 (from UniProt P08238)
binding [1]: binds

B3: Cdc37 chaperone protein, endogenous in HeLa cells (protein, human, UniProt Q16543 1-378, looked up)
chain: MVDYSVWDHIEVSDDEDETHPNIDTASLFRWRHQARVERMEQFQKEKEELDRGCRECKRKVAECQRKLKELEVAEGGKAELERLQAEAQQLRKEERSWEQKLEEMRKKEKSMPWNVDTLSKDGFSKSMVNTKPEKTEEDSEEVREQKHKTFVEKYEKQIKHFGMLRRWDDSQKYLSDNVHLVCEETANYLVIWCIDLEVEEKCALMEQVAHQTIVMQFILELAKSLKVDPRACFRQFFTKIKTADRQYMEGFNDELEAFKERVRGRAKLRIEKAMKEYEEEERKKRLGPGGLDPVEVYESLPEELQKCFDVKDVQMLQDAISKMDPTDAKYHMQRCIDSGLWVPNSKASEAKEGEEAGPGDPLLEAVPKTGDEKDVSV
binding [9]: binds

B4: N-terminal Myc-tagged MO25α (other, human, UniProt Q9Y376 1-341, looked up)
chain: MPFPFGKSHKSPADIVKNLKESMAVLEKQDISDKKAEKATEEVSKNLVAMKEILYGTNEKEPQTEAVAQLAQELYNSGLLSTLVADLQLIDFEGKKDVAQIFNNILRRQIGTRTPTVEYICTQQNILFMLLKGYESPEIALNCGIMLRECIRHEPLAKIILWSEQFYDFFRYVEMSTFDIASDAFATFKDLLTRHKLLSAEFLEQHYDRFFSEYEKLLHSENYVTKRQSLKLLGELLLDRHNFTIMTKYISKPENLKLMMNLLRDKSRNIQFEAFHVFKVFVANPNKTQPILDILLKNQAKLIEFLSKFQNDRTEDEQFNDEKTYLVKQIRDLKRPAQQEA
notes: also called Myc-MO25α; myc-MO25α; not shown: only the DNA primer is printed
binding [10]: binds | binding [11]: binds

Next, values leading:

binding [2]: binds | binding [3]: binds | binding [4]: binds
B1: endogenous human STRADα (HeLa, 293 cells) (protein, UniProt Q7RTN6 1-431, looked up)
chain: MSFLVSKPERIRRWVSEKFIVEGLRDLELFGEQPPGDTRRKTNDASSESIASFSKQEVMSSFLPEGGCYELLTVIGKGFEDLMTVNLARYKPTGEYVTVRRINLEACSNEMVTFLQGELHVSKLFNHPNIVPYRATFIADNELWVVTSFMAYGSAKDLICTHFMDGMNELAIAYILQGVLKALDYIHHMGYVHRSVKASHILISVDGKVYLSGLRSNLSMISHGQRQRVVHDFPKYSVKVLPWLSPEVLQQNLQGYDAKSDIYSVGITACELANGHVPFKDMPATQMLLEKLNGTVPCLLDTSTIPAEELTMSPSRSVANSGLSDSLTTSTPRPSNGDSPSHPYHRTFSPHFHHFVEQCLQRNPDARPSASTLLNHSFFKQIKRRASEALPELLRPVTPITNFEGSQSQDHSGIFGLVTNLEELEVDDWEF

binding [5]: binds | binding [6]: binds | binding [7]: binds | binding [8]: binds
B2: endogenous rat STRADα (Rat-2 cells; rat liver) (protein, UniProt Q7TNZ6 1-393, looked up)
chain: MSFLANEASSESIASFSKPEIMSSFLPEGGCYELLSVIGKGFEDLMTVNSRYKPTGEYVTVRRINLEACSNEMVTFLQGELHVSKLFSHPNIVPYRATFIADNELWAVTSFMAYGSAKDLIGTHFMDGMSELAIAYILQGVLKALDYIHHMGYVHRSVKASHILISTDGKVYLSGLRSNLSMISHGQRQRAVHDFPKYSIKVLPWLSPEVLQQNLQGYDAKSDIYSVGITACELANGHVPFKDMPATQMLLEKLNGTVPCLLDTSTIPAEELTMSPSRSIANPGLNDSLAAGSLRPANGDSPSHPYHRTFSPHFHNFVEQCLQRNPDARPNASTLLNHSFFKQIKRRASEALPELLRPVTPITSFEGSQSQDHSGILGLVTNLEDLEVDDWEF
